# pIC50: −log10 of the molar value. For at least one compound, name, drawing or mass did not settle the structure.
# Test system: Protein synthesis (E. coli S30 Extract System)
# Assay: Protein synthesis inhibition, in vitro transcription/translation assay (E. coli S30 Extract System for Circular DNA)
# Type: biochemical
smiles,measurement,value
"CN(C)c1ccc(O)c2c1C[C@H]1C[C@H]3[C@H](N(C)C)C(O)=C(C(N)=O)C(=O)[C@@]3(O)C(O)=C1C2=O [Minocycline, minocycline, reference compound]",pIC50,5.72

# Reference: patent publication US20100190755A1, “TETRACYCLINE COMPOUNDS FOR THE TREATMENT OF RHEUMATOID ARTHRITIS AND RELATED METHODS OF TREATMENT” (priority 2008, published 2010)
